No constants are given. Whether binding was seen depends on the method and setting. In cells and extracts the contact can be indirect. Some entries that bind do so weakly or less than the wild type.

By UniProt entry, the sequences of proteins in these tests, tags left out. Residues count along the entry.
UniProt P29317, residues 24-976: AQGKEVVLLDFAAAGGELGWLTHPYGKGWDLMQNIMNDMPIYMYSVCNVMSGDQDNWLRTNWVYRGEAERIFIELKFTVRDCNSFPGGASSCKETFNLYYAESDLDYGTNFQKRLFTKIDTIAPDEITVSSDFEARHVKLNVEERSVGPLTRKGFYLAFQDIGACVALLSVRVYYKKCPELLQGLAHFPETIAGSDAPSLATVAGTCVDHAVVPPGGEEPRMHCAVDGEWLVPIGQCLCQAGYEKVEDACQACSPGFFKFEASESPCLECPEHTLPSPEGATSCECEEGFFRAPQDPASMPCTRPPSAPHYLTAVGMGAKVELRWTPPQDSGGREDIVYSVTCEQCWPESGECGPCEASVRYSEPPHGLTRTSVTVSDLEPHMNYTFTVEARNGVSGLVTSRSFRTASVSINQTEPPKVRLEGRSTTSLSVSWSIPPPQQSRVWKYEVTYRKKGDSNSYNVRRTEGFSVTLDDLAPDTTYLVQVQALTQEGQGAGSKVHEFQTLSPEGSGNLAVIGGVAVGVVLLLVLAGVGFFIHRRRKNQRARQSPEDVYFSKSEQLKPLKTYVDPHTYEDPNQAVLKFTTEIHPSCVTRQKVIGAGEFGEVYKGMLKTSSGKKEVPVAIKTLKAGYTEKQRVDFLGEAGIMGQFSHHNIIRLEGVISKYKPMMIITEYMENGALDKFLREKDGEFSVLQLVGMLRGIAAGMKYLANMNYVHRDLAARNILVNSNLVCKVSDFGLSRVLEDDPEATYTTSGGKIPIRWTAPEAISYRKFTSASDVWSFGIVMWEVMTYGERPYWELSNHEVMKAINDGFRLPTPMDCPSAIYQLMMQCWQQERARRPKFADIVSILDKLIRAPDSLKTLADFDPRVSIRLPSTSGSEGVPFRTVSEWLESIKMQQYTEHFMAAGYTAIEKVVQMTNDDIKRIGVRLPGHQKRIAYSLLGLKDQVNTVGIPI
UniProt P08670: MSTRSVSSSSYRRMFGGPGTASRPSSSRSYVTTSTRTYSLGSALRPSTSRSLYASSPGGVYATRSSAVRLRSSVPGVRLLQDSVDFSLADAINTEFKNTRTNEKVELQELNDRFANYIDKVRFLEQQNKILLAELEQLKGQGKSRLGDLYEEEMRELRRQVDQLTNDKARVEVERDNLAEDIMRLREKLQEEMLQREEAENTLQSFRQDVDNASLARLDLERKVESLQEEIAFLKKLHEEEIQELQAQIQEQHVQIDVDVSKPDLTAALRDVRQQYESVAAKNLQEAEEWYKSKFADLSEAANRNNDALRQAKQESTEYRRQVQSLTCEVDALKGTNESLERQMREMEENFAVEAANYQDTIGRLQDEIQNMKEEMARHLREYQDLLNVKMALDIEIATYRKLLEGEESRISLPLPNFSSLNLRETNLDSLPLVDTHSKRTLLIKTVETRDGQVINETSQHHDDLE
UniProt P35579: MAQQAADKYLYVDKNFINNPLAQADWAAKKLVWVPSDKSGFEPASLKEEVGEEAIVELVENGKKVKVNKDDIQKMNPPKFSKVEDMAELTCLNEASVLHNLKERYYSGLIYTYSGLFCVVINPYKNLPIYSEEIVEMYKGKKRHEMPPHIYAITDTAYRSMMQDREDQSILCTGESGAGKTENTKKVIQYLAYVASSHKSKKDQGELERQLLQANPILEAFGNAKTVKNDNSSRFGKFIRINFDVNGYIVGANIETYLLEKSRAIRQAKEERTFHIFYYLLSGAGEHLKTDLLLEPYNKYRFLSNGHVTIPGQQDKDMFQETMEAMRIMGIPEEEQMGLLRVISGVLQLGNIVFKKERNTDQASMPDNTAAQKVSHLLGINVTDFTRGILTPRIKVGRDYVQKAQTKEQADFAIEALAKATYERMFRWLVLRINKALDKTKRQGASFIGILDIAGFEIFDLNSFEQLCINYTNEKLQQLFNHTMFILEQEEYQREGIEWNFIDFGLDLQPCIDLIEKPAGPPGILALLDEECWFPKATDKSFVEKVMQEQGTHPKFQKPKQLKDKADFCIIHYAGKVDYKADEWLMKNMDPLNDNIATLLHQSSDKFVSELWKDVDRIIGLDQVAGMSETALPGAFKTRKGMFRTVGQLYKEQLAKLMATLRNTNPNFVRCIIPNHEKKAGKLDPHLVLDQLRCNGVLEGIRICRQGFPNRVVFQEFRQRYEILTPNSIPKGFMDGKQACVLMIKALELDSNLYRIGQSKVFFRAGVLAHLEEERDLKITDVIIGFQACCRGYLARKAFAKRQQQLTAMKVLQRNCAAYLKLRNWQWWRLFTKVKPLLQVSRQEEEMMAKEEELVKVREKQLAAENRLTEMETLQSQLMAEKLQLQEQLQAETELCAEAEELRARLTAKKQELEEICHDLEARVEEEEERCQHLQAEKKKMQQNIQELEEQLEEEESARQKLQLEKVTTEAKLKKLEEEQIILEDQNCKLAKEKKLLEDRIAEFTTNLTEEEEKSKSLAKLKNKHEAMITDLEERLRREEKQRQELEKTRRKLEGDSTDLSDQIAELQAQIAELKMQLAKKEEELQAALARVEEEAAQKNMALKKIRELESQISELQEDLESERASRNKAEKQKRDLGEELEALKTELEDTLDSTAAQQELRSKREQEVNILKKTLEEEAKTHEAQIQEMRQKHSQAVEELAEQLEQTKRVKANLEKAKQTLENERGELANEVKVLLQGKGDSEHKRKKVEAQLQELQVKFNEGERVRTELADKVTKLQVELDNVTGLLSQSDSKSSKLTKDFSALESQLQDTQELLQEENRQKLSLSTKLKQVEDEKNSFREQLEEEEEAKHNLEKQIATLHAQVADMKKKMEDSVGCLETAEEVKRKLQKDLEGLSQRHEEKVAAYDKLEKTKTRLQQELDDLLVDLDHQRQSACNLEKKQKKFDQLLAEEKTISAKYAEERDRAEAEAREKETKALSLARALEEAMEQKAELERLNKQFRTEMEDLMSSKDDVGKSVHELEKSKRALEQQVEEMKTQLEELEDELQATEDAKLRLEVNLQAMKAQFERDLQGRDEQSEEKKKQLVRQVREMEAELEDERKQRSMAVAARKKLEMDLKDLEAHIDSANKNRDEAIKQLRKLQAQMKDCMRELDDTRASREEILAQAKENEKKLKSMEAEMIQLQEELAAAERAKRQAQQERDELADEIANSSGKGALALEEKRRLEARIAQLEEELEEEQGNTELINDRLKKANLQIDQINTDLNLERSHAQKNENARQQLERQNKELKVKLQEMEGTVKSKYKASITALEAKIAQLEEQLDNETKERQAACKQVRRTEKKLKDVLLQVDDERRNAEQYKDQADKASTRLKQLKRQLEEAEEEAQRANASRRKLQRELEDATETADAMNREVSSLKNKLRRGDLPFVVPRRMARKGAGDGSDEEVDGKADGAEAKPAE
UniProt Q05397: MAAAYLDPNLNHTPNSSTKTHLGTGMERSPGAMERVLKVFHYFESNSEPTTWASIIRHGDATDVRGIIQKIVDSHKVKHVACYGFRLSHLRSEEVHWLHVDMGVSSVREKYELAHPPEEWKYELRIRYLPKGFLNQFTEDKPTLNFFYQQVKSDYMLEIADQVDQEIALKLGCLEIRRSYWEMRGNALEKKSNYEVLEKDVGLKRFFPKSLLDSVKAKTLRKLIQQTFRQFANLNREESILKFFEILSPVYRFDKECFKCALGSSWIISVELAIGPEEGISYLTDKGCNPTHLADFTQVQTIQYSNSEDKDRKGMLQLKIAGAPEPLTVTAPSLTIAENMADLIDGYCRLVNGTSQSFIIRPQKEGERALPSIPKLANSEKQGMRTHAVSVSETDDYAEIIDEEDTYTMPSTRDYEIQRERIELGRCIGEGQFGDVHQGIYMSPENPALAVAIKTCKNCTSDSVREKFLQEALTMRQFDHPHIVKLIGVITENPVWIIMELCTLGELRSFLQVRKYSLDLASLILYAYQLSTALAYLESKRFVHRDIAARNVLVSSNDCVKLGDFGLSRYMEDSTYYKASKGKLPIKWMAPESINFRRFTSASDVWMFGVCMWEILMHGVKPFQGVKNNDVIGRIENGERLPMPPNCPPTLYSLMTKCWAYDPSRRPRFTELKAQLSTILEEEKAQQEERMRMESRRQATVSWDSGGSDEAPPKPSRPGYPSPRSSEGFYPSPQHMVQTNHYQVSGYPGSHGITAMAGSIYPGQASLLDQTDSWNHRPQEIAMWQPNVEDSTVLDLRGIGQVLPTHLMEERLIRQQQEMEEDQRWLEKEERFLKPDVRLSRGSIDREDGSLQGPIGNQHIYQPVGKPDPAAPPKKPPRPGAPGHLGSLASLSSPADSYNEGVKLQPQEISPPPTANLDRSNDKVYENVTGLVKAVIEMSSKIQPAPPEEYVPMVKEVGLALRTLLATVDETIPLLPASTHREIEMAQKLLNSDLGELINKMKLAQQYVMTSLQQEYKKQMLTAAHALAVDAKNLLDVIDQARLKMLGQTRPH
UniProt P07355: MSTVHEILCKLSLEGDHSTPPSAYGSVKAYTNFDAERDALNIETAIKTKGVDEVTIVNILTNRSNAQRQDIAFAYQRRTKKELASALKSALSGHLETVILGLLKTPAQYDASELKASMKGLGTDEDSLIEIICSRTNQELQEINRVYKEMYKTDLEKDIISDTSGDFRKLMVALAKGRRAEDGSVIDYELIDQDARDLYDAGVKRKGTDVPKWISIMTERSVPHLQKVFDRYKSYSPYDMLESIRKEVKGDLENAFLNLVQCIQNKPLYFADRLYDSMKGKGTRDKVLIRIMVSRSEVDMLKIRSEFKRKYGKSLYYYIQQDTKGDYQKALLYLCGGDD
UniProt O43707: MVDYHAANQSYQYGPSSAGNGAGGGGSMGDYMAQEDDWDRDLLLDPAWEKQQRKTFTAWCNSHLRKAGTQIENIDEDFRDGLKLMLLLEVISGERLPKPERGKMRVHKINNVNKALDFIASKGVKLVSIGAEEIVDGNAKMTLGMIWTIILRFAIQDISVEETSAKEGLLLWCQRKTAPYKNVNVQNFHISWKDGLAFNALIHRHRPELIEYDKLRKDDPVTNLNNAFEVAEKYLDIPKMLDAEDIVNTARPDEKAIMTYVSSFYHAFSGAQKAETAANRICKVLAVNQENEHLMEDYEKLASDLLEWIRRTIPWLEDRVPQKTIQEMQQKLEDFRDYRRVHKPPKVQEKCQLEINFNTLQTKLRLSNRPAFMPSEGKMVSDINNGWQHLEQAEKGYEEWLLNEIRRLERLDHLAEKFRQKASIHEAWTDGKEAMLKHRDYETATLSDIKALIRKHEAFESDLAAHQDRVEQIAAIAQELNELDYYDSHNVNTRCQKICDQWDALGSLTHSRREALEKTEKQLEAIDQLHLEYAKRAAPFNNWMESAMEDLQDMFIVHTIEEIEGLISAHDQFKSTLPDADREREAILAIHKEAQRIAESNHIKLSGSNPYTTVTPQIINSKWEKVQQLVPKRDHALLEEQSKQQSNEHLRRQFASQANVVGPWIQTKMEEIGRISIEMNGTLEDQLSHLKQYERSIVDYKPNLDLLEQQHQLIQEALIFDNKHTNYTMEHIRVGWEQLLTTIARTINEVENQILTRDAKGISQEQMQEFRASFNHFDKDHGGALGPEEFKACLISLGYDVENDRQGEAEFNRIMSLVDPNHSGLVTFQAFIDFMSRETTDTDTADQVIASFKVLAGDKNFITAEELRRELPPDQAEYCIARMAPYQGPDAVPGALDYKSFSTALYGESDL

The target in assay [1] is T1, calcium and integrin binding protein-1 (CIB1) (human (endogenous in HMVEC-d)) (UniProt Q99828).
T1 sequence: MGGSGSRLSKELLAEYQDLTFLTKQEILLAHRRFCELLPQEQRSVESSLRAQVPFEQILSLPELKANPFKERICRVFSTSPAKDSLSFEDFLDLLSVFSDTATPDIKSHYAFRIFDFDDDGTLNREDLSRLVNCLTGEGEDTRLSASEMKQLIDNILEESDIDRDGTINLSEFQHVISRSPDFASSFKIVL
Put plainly: co-IP; 200 µg lysate of serum-starved HMVEC-d cells (25 mM Tris-HCl pH 7.5, 150 mM NaCl, 1% NP40, 2 mM EDTA, 10% glycerol), overnight at 4°C with anti-CIB1 or anti-EphA2 antibody, protein G-sepharose, Western blot; cells mock or KSHV infected (5, 10, 30 min), infected with heparin-treated KSHV, or CIB1-shRNA transduced.

Assay [2] deals with EphrinA2 (EphA2) (human (endogenous in HMVEC-d)) (UniProt P29317). Described as above.
Assay [3] has as its target T1, calcium and integrin binding protein-1 (CIB1) (human (endogenous in HMVEC-d)). Put plainly: co-IP; data not shown; after KSHV infection.

Regarding “EphrinA2 (EphA2) (from UniProt P29317 24-976) (receptor)”, in assay [1], the binding entry was “binds”.

Turning to vimentin (from UniProt P08670 1-466), the binding entry in assay [2] and in assay [1] was “binds” in each case.

Turning to myosin IIA (from UniProt P35579 1-1960), the binding result in assay [2] and in assay [1] was “binds” throughout.

Consider “focal adhesion kinase (FAK) (from UniProt Q05397 1-1052) (enzyme)”, for which the binding result in assay [3] is given as “binds”.

With annexin A2 (from UniProt P07355 1-339), the binding result in assay [2] and in assay [1] was “binds” throughout.

As for “alpha-actinin 4 (from UniProt O43707 1-911)”, the binding result in assay [1] is on record as “binds”.

The values are drawn from publication PMC3923796.
